Values of other authors in patent US10195212B2, “Glucocorticoid-loaded nanoparticles for prevention of corneal allograft rejection and neovascularization” (The Johns Hopkins University, priority 2014, dated 2019).
At least one structure is not confirmed: it was looked up by name or label, or the drawing left a doubt.

Conditions: cited from earlier work; for Relative Potency of Glucocorticoid: hydrocortisone = 1

SMILES	Relative Potency of Glucocorticoid	anti-inflammatory potency in comparison to prednisone (ratio dexamethasone:prednisone)
C[C@H]1C[C@@H]2[C@H]([C@@H](O)C[C@@]3(C)[C@H]2CC[C@]3(O)C(=O)CO)[C@@]2(C)C=CC(=O)C=C12 [Methylprednisolone]	5	–
C[C@H]1C[C@H]2[C@@H]3CCC4=CC(=O)C=C[C@]4(C)[C@@]3(F)[C@@H](O)C[C@]2(C)[C@@]1(O)C(=O)CO [Betamethasone]	25	–
C[C@@H]1C[C@H]2[C@@H]3CCC4=CC(=O)C=C[C@]4(C)[C@@]3(F)[C@@H](O)C[C@]2(C)[C@@]1(O)C(=O)CO [Dexamethasone]	25	7:1
